# Data: PubChem BioAssay AID1439 (NMMLSC, 2008)
# Amino acid sequences for entries named in this document (tags omitted).
# UniProt P09471, whole entry, looked up: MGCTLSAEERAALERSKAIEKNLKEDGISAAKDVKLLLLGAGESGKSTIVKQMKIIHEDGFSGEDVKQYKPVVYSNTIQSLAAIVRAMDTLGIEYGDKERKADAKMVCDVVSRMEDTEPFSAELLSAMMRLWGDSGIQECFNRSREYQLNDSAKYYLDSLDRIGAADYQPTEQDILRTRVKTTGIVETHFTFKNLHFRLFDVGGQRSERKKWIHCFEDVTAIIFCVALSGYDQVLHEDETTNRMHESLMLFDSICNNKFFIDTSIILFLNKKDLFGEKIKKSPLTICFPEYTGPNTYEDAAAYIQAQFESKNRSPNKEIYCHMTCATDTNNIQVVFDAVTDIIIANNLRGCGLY
# Screen size: about 220,000 compounds; about 770 (0.35%) were called active. The shares of active, inactive and inconclusive entries below differ from those in the screen. Cut-off read from the data, not from the text of the source: active = binding response below about 49% or above about 150%; inconclusive = no clear call, values can overlap the other calls; inactive = in between.
# Molecular target: Guanine nucleotide-binding protein G(o) subunit alpha (Homo sapiens) (UniProt P09471)
# Test: RGS7-Galphao binding modulators, primary screen, biochemical, multiplexed bead flow cytometry (AID 1439);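 note: fluorescent Galphao held in activated GDP-AlF4 state binding bead-coupled RGS7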
# Conditions: at 10 µM, actives lie on both sides
row,Structure (SMILES),binding response (% of control)
1,C=CCNc1nc(-c2cccs2)c(CC(=O)O)s1,inconclusive: 116%
2,O=[N+]([O-])c1cnn(-c2nc(-c3cccs3)cc(C(F)(F)F)n2)c1,inconclusive: 79.4%
3,Cc1cc(=O)[nH]c(SCc2cccc3cccnc23)n1,inconclusive: 101%
4,O=C1CCC/C(=N/NC(=O)c2cc(NS(=O)(=O)c3cccs3)cc(NS(=O)(=O)c3cccs3)c2)C1,inconclusive: 110%
5,Cn1c(SCC(N)=O)nnc1-c1ccccc1,inactive: 106%
6,COc1cccc(/C=N/NC(=O)c2c(C)nc3ccc(Br)cn23)c1,inconclusive: 98.8%
7,CCOc1cccc(C2C(C#N)=C(N)Oc3cc(C)[nH]c(=O)c32)c1OCC (stereo not drawn),inconclusive: 67.3%
8,Cc1ccc(Nc2nc(C)c3c(n2)CC(C)CC3=O)c(C)c1 (stereo not drawn),inconclusive: 99.4%
9,O=C(O)c1cccc(Nc2c([N+](=O)[O-])c(=O)oc3ccccc23)c1,inconclusive: 103%
10,CC(C)c1cc(-c2cc(C(=O)NCc3ccccc3)on2)nc(NC2CCCC2)n1,inconclusive: 96.2%
11,CSc1ccccc1NC(=S)N/N=C/c1cccn1Cc1ccc(F)cc1,inconclusive: 105%
12,CC(C)CCn1c2ccccc2c2cc(CC(N)=O)ccc21,inconclusive: 43.3%
13,NC(=O)CC(NC(=O)Cc1cccc2ccccc12)c1ccc(NC2CCC2)c([N+](=O)[O-])c1 (stereo not drawn),inconclusive: 83.2%
14,CCc1nc(SCC(=O)c2ccccc2)c2c(=O)n(C)c(=O)n(C)c2n1,inconclusive: 94.5%
15,CCOc1ccc(/C(O)=C2/C(=O)C(=O)N(c3ncccn3)C2c2ccc(C)cc2)cc1 (stereo not drawn),inconclusive: 102%
16,CCOC(=O)/C=c1\s/c(=C\c2ccc3cc(OC)ccc3c2)c(=O)n1CC(=O)NCc1ccc2c(c1)OCO2,inactive: 96.3%
17,CCCCNC(=O)c1ccc(N2CCC3(CC2)OCCO3)c([N+](=O)[O-])c1,inactive: 93.4%
18,O=C(NCCCn1ccnc1)/C(=C\c1cccnc1)NC(=O)c1ccccc1F,inactive: 98.7%
19,CCOC(=O)c1cccc(C(=O)Nc2nc3ccc(OC)cc3s2)n1,inactive: 101%
20,COCc1ccc(CN2CCc3c([nH]c4ccccc34)C2CC(C)C)o1 (stereo not drawn),inactive: 77.6%

# Exported with tabs: part of the list above
row	Structure (SMILES)	binding response (% of control)
2	O=[N+]([O-])c1cnn(-c2nc(-c3cccs3)cc(C(F)(F)F)n2)c1	inconclusive: 79.4%
3	Cc1cc(=O)[nH]c(SCc2cccc3cccnc23)n1	inconclusive: 101%
4	O=C1CCC/C(=N/NC(=O)c2cc(NS(=O)(=O)c3cccs3)cc(NS(=O)(=O)c3cccs3)c2)C1	inconclusive: 110%
5	Cn1c(SCC(N)=O)nnc1-c1ccccc1	inactive: 106%
8	Cc1ccc(Nc2nc(C)c3c(n2)CC(C)CC3=O)c(C)c1 (stereo not drawn)	inconclusive: 99.4%
9	O=C(O)c1cccc(Nc2c([N+](=O)[O-])c(=O)oc3ccccc23)c1	inconclusive: 103%
10	CC(C)c1cc(-c2cc(C(=O)NCc3ccccc3)on2)nc(NC2CCCC2)n1	inconclusive: 96.2%
11	CSc1ccccc1NC(=S)N/N=C/c1cccn1Cc1ccc(F)cc1	inconclusive: 105%
17	CCCCNC(=O)c1ccc(N2CCC3(CC2)OCCO3)c([N+](=O)[O-])c1	inactive: 93.4%
18	O=C(NCCCn1ccnc1)/C(=C\c1cccnc1)NC(=O)c1ccccc1F	inactive: 98.7%
19	CCOC(=O)c1cccc(C(=O)Nc2nc3ccc(OC)cc3s2)n1	inactive: 101%

# Additional records.

row,Structure (SMILES),binding response (% of control)
1,CCCCCC[N+](C)(C)CC/C=C1/c2ccccc2Sc2ccc(Cl)cc21,inconclusive: 157%
2,CCOC(=O)C(=CNNc1c(C)csc1C(=O)OC)C(=O)OCC,inconclusive: 127%
3,C=CCNC(=O)CSCc1ccc(Br)cc1,inconclusive: 119%
4,O=C(Cn1nc(C(=O)O)c2ccccc2c1=O)c1c[nH]c2ccccc12,inconclusive: 90.9%
5,Cn1c(=O)c(N)c2c3c(c(Br)ccc31)C(=O)c1ccccc1-2,inconclusive: 338%
6,Cc1ccc2nc(SCC(=O)c3ccc(O)cc3O)[nH]c2c1,inconclusive: 58%
7,O=C(NN1C(=O)C2C3C=CC(C3)C2C1=O)C(O)c1ccccc1 (stereo not drawn),inconclusive: 93.7%
8,CN(C)c1ccc(-c2n[nH]c(=S)n2-c2ccccc2)cc1,inconclusive: 97.9%
9,O=C(Nc1cc(F)ccc1F)N1CCN(c2ccnc3cc(Cl)ccc23)CC1,inconclusive: 110%
10,CCN(CC)S(=O)(=O)c1cc(NC(=O)C2Cc3ccccc3C(=O)O2)ccc1C (stereo not drawn),inconclusive: 134%
11,Cc1ccc(C(=O)N2CCN(c3ncnc4c(C)csc34)CC2)cc1,inconclusive: 88.6%
12,O=C(/C=C\Nc1ccc(S(=O)(=O)Nc2ncccn2)cc1)c1cccc2ccccc12,inconclusive: 101%
13,CC1CC(C)CN(C(=O)CSCC(=O)O)C1 (stereo not drawn),inconclusive: 336%
14,COC(=O)C(C(=O)Nc1ccccc1C)C1CCCCCC1 (stereo not drawn),inactive: 101%
15,C#CCNC(=O)C1CCN(c2cc(C)nc(-c3ccccc3)n2)CC1,inconclusive: 81.8%
16,CC(Nc1ccc(Cl)cc1)C(=O)NN (stereo not drawn),inconclusive: 96.4%
17,COc1cc(OC)c(N(C)S(=O)(=O)c2cccc(C(=O)NC3=NCCS3)c2)cc1Cl,inconclusive: 102%
18,CC(C)(C)c1ccc(C(=O)c2c[nH]c(C(=O)O)c2)cc1,inconclusive: 143%
19,Oc1c(Cl)cc(Cl)cc1C=Nc1cc(C(F)(F)F)ccc1N1CCc2ccccc2C1,inconclusive: 109%
20,COC(=O)c1ccc(COC(=O)CNS(=O)(=O)c2ccc(C)cc2)cc1,inactive: 100%

row,Structure (SMILES),binding response (% of control)
1,Cc1cc(C)n2nc(SCC(=O)c3cc(C)n(CC4CCCO4)c3C)nc2n1 (stereo not drawn),inconclusive: 103%
2,COc1ccc(Br)cc1/C=N/NC(=O)c1ccc(OC)c(OC)c1,inconclusive: 103%
3,COC(=O)C1=C(C)N(c2ccc(OC)c(OC)c2)C(=O)/C1=C\c1cccs1,inconclusive: 130%
4,Nc1cc(=O)[nH]c(SCC(=O)Nc2ccccc2Sc2ccccc2)n1,inactive: 105%
5,CCOc1ccc(Br)cc1-c1noc(-c2cccs2)n1,active: 12%
6,Cc1onc(-c2ccccc2)c1CNC(=O)C1COc2ccccc2O1 (stereo not drawn),inconclusive: 96.4%
7,COc1ccccc1NC(=O)N(Cc1ccccc1)C1=NCC(C)S1 (stereo not drawn),inactive: 93.7%
8,Cc1ccc(C(=O)NC2CCCCNC2=O)cc1C (stereo not drawn),inconclusive: 90.1%
9,O=C(CN1CCCCC1)Nc1ccc(C(F)(F)F)cc1Cl,inconclusive: 105%
10,O=C(Nc1cccc(Cl)c1)Nn1cnnc1,inconclusive: 86.2%
11,COc1ccc2[nH]c3c(=O)n(CCN4CCOCC4)cnc3c2c1,inconclusive: 76.9%
12,O=C(Nc1ccc(O)cc1)/C(=C/c1ccco1)NC(=O)c1ccccc1,inconclusive: 105%
13,O=C(Nc1ccc(C(=O)N2CCOCC2)cc1)c1cc(-c2cccnc2)nc2ccc(Br)cc12,inconclusive: 109%
14,CC(=O)c1c(C(C)=O)c(C)n(NC(=O)c2ccccc2Cl)c1C,inactive: 95.8%
15,CC(C)OCCCn1c(-c2ccc(Br)cc2)c[nH]c1=S,inconclusive: 117%
16,O=C(CSc1nnc(Cc2ccccc2)o1)Nc1ccc(Br)cn1,inactive: 101%
17,Cc1ccc(N2CN(CCC3=CCCCC3)CNC2=S)cc1,inconclusive: 73.1%
18,CCOC1=NN(c2ncc(C(F)(F)F)cc2Cl)C(=O)/C1=C/N(C)C,inactive: 97.7%
